Results on 1 molecule are retold here after article PMC5035731.

In the experiment the target is BY-kinase PtkA from Bacillus subtilis, Strep-tagged (Bacillus subtilis). Kind of experiment: far-Western, overlay or dot blot; 20 ug purified TkmA separated on SDS-PAGE and blotted onto PVDF; strips incubated with Strep-tagged PtkA (methods: 20 nM, 1 h, room temperature; legend: 12 uM, 2 h) alone or mixed with SalA at different molar ratios; detected with Strep-tactin HRP conjugate; both purified.

No constants are given. Whether binding was seen depends on the method and setting. Binding can be weak; no strength is given. Sequences can lack the tags named with a protein.

B1: SalA, transcriptional regulator of the Mrp ATPase family, Bacillus subtilis, 6x His-tagged (protein, UniProt P50863 1-352)
chain: MIREDEVRKLVGEMREPFLQRPLGELDAVKEIKIKPEKRHISVKVALAKTGTAEQMQIQQEIVNVLKGAGAETVGLRFEELPEETVAKFRAPSAEKKTLLNMDNPPVFLAVASGKGGVGKSTVSVNLAISLARLGKKVGLIDADIYGFSVPDMMGITVRPTIEGEKLLPVERFGVKVMSMGFFVEENAPVVWRGPMLGKMLNNFFHEVEWGEVDYIVLDLPPGTGDVALDVHTMLPSCKEIIVSTPHPTAAFVAARAGSMAIKTDHEVVGVIENMAYYESAKTGEREYVFGKGGGDKLAEELNVPLLGRIPLKQPDWDKDQFAPSVYDENHPIGEIYQDIAKKIDAKMSVQV
Consider B1, for which the binding entry is listed as “binds”.
